The values that follow come from patent publication US20030208060A1.

Sequences of proteins named here, by UniProt entry; tags and fusion partners are left off. Residues count along the entry.
UniProt P04114, residues 28-2179: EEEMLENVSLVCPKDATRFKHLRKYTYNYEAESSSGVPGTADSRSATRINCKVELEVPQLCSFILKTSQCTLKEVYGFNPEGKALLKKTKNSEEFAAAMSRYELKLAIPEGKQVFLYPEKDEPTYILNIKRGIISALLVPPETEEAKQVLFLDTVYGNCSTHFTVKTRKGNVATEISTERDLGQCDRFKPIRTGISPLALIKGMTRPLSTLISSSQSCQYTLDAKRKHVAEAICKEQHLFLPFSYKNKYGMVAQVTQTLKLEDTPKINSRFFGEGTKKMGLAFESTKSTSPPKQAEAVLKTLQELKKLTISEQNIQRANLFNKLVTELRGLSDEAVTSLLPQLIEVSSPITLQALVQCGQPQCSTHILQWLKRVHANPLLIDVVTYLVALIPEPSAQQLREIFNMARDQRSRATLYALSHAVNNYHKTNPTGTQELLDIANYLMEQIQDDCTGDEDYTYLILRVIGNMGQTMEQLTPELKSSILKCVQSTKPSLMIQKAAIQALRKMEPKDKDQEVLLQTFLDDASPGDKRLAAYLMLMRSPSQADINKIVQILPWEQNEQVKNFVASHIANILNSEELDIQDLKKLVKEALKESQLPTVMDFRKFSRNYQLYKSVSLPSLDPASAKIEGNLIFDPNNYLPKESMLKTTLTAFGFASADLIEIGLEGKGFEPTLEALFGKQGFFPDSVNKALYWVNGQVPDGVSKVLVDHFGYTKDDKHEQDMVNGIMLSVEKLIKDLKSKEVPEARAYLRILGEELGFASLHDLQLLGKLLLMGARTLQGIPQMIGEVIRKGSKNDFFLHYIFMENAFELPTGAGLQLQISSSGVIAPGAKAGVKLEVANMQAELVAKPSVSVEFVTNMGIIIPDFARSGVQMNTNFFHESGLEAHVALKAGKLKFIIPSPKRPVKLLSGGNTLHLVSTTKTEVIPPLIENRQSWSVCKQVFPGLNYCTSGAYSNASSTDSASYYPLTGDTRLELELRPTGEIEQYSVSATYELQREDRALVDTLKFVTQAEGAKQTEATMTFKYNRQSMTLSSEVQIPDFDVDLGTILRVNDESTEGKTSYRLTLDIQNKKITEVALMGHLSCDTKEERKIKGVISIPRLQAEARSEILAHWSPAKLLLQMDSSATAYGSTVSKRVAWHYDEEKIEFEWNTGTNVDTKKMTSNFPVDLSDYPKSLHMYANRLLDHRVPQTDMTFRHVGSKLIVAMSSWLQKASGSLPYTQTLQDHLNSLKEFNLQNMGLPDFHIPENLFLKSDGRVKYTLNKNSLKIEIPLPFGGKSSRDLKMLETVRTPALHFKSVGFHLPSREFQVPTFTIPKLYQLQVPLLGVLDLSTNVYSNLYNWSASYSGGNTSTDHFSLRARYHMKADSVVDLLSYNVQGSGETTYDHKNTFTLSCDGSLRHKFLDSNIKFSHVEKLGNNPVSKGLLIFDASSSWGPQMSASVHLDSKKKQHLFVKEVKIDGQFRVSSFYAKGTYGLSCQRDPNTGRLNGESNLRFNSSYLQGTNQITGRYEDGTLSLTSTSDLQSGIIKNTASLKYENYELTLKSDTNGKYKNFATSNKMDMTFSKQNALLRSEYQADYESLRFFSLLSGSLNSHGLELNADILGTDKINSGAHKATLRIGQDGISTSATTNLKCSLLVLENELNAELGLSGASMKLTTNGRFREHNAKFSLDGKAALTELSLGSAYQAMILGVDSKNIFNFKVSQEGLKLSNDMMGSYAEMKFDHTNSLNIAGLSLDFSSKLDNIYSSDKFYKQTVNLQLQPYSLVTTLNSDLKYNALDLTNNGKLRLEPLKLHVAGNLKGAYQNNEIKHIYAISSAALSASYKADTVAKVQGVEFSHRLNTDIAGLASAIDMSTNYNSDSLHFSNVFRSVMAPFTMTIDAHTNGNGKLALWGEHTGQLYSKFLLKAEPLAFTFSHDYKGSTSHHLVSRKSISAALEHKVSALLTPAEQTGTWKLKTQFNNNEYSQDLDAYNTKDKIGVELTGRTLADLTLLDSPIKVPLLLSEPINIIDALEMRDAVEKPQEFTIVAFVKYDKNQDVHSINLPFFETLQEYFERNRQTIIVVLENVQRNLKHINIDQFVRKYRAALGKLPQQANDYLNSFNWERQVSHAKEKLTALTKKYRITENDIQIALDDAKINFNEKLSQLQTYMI
UniProt E9Q414, residues 28-2178: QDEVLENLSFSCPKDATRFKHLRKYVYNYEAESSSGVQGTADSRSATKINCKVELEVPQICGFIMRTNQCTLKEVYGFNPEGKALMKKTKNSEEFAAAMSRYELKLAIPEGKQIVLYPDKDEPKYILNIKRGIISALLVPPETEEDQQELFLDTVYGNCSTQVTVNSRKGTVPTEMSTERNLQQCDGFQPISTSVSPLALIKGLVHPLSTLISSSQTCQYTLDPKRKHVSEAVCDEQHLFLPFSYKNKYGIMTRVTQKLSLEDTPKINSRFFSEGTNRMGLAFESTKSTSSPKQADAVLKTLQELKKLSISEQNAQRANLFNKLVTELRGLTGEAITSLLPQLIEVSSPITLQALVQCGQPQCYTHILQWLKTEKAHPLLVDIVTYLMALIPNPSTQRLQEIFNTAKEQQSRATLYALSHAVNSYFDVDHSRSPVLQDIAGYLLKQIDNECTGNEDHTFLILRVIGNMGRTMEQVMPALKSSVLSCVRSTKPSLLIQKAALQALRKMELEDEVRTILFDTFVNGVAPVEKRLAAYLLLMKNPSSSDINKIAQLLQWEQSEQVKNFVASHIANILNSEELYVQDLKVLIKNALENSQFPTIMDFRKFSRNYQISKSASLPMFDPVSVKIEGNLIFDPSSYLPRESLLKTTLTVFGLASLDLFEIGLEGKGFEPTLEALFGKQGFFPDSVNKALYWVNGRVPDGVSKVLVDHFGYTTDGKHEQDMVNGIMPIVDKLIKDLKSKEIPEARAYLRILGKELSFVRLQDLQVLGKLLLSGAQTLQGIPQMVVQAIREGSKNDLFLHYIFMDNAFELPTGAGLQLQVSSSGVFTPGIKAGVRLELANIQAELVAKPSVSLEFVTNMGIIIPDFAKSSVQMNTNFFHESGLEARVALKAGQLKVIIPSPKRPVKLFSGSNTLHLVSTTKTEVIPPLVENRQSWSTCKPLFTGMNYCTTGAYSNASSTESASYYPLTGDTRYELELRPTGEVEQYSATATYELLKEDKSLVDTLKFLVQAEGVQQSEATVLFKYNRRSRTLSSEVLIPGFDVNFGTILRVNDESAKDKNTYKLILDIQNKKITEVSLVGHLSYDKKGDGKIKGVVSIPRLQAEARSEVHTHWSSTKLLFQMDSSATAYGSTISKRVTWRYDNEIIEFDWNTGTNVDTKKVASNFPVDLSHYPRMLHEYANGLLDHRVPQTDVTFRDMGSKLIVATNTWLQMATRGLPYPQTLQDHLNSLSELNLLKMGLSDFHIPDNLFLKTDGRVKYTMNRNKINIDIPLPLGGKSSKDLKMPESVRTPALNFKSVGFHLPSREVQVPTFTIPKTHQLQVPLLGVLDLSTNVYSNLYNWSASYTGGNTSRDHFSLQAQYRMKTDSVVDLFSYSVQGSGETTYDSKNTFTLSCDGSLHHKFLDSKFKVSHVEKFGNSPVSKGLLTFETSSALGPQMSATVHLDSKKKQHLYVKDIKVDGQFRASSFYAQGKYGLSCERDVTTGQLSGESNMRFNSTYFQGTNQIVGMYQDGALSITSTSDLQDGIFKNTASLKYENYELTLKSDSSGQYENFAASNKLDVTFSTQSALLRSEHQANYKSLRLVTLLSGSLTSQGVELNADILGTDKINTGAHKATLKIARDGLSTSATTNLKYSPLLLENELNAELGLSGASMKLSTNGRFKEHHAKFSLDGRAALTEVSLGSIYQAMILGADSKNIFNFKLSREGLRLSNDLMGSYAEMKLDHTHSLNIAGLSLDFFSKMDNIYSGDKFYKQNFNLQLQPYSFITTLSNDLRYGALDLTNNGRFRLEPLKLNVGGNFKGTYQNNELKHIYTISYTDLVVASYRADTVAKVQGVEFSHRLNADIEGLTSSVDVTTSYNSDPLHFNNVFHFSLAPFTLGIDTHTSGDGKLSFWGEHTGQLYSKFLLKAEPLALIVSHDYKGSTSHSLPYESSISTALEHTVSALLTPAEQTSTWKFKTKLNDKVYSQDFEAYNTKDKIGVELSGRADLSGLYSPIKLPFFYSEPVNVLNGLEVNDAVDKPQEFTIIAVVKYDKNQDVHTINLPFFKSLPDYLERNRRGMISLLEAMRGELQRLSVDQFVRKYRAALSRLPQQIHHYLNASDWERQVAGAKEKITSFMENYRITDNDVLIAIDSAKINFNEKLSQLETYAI

These are yes or no findings as the source states them, for the method shown. Some entries that bind do so weakly or less than the wild type. Sequences can lack the tags named with a protein.

In the experiment the target is T1, MBP200 (membrane binding protein of ~200 kDa; human monocyte-macrophage apoB48 receptor, apoB48R) (human) (UniProt Q0VD83).
T1 sequence: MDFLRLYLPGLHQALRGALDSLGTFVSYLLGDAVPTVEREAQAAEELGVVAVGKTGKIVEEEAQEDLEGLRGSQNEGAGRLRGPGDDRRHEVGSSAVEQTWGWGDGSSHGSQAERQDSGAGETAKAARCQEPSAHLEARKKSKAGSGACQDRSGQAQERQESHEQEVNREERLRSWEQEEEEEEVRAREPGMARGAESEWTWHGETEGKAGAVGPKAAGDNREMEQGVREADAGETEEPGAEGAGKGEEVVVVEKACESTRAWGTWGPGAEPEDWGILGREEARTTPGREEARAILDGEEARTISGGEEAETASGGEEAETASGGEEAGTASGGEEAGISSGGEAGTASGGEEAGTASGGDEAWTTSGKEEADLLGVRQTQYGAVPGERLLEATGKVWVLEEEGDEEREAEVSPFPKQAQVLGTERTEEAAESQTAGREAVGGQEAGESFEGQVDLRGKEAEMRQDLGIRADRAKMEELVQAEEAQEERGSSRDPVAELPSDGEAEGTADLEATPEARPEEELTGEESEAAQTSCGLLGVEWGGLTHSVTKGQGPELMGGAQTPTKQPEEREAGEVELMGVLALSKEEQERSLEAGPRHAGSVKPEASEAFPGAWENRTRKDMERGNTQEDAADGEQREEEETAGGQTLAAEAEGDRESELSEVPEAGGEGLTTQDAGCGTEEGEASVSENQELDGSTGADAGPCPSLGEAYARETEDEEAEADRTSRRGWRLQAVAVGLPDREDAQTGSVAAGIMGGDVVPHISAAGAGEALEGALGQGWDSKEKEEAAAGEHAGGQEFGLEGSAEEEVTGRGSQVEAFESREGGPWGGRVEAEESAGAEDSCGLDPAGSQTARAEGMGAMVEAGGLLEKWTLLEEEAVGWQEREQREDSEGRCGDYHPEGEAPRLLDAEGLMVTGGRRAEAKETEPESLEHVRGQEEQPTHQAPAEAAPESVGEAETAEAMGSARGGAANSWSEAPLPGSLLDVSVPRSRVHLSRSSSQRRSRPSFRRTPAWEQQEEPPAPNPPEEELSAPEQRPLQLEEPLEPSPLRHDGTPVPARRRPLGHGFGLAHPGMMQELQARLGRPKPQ
Briefly: ligand blot.

“plasma chylomicrons Sf>400 (from UniProt P04114 28-2179)”: the binding result is “binds”.

In the case of “apoE-free B-VLDL from apoE knockout mice (from UniProt E9Q414 28-2178)”, the binding result is listed as “binds”.
